{"source": "PubChem BioAssay AID1471", "about": "(National Center for Advancing Translational Sciences (NCATS), 2008)", "note": "Out of some 230,000 compounds screened, about 310 (0.13%) were called active. Inconclusive results, whose numbers are uncertain, are shown with a selection of clear calls. Calls come from the whole dose curve; as a rule, active = well fitted activation curve with a large enough effect; inconclusive = small, poorly fitted or top-dose-only effect; inactive = no such curve, though single readings can be large or run the other way. A potency beside an inconclusive call is a rough fit, not a confirmed value. Potency is the fitted concentration of half-maximal effect."}
{"test": "qHTS Multiplex Assay to Identify Dual Action Probes in a Cell Model of Huntington: Cytoprotection (ATP); note: nearly all actives have a fitted effect of over 45% in size;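 for cytoprotection (ATP increase): toxic huntingtin expression switched on by the ecdysone agonist tebufenozide; % of control where 0% means no effect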", "details": "PC12 HTT-Q103 induced, ATP luminescence, 40 h; cytoprotection (ATP increase): at 56.4 µM (top of the series) unless noted", "procedure,_shortened": "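Rat PC12, Q103 Htt exon1-GFP fusion, ecdysone promoter; tebufenozide inducer 100 nM final; compound titration; qHTS, 1500 cells/well; ATPlite luminescent read.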"}
{"smiles": "CCOC(=O)Nc1sc(NS(=O)(=O)c2ccc(C)cc2)nc1C", "Potency": "inconclusive: 2.82 µM [activator, partial curve]"}
{"smiles": "COc1c(O[C@H]2O[C@@H](CO)[C@@H](O)[C@@H](O)[C@@H]2O)cc2c(c1OC)-c1ccc(SC)c(=O)cc1[C@H](NC(C)=O)CC2", "Potency": "inconclusive: 1.78 µM [activator, partial curve]"}
{"smiles": "C#CCCCO/N=C1/C[C@@H](O)[C@@H](O)[C@@H]2[C@@H]3C(=O)N([C@@H](C)c4ccccc4)C(=O)[C@H]3CC[C@@H]12", "Potency": "inconclusive: 0.0011 µM [activator, full curve, poor fit]"}
{"smiles": "CN1Cc2c(N)cccc2C(c2ccccc2)C1", "note": "(centres undefined)", "Potency": "inconclusive: 0.282 µM [activator, full curve]"}
{"smiles": "NC(=O)NNc1ccccc1", "Potency": "inconclusive: 0.316 µM [activator, partial curve, poor fit]"}
{"smiles": "Cc1ccccc1OCC(=O)Nc1ccc(Cc2ccncc2)cc1", "cytoprotection (ATP increase)": "inactive: 6.55% [at 10 µM]"}
{"smiles": "CC1=C/C(=N\\Nc2ccccc2[N+](=O)[O-])CC(C)(C)C1", "cytoprotection (ATP increase)": "inactive: -14.2% [at 10 µM]"}
{"smiles": "O=C(c1ccncc1)N1CCC2(CC1)CN(c1ccncc1)C2", "Potency": "inconclusive: 0.0032 µM [activator, full curve, poor fit]"}
{"smiles": "O=C(NC(=S)NC1C2CC3CC(C2)CC1C3)C12CC3CC(CC(C3)C1)C2", "note": "(centres undefined)", "Potency": "inconclusive: 5.62 µM [activator, single point]"}
{"smiles": "C=CC[C@@H]1C=C[C@H](O/N=C(\\C)CCN2CCCCc3nc(C)c(C)cc32)[C@H](CO)O1", "Potency": "inconclusive: 0.001 µM [activator, full curve, poor fit]"}
{"smiles": "CC(C)C[C@@H](CC(=O)N[C@@H](CCC(=O)O)CC(=O)O)NC(=O)[C@@H]1CCCC[C@H]1NC(=O)C[C@H](CCCN)NC(=O)C[C@H](CO)NC(=O)[C@@H]1CNCC[C@H]1N", "Potency": "inconclusive: 2.51 µM [activator, single point]"}
{"smiles": "CCCNC(=O)OC[C@@H]1O[C@H](CCO/N=C(\\C)CCC(=O)OC[C@@H]2O[C@H](c3ccccc3)C=C[C@@H]2Oc2ccc(OC)cc2)C=C[C@@H]1Oc1ccc(OC)cc1", "Potency": "inconclusive: 1.26 µM [activator, single point]"}
{"smiles": "CN(C)C/C=C(\\c1ccc(Br)cc1)c1cccnc1", "Potency": "inconclusive: 39.8 µM [activator, single point]"}
{"smiles": "COc1cc(CN(C)Cc2cc(=O)n3ccsc3n2)ccc1OC(F)F", "Potency": "inconclusive: 5.62 µM [activator, single point]"}
{"smiles": "Cc1[nH]n(-c2ccccc2)c(=O)c1/C=N/NC(=O)C(C)C", "Potency": "inactive"}
{"smiles": "COC(=O)c1cn(-c2ccccc2)nc1-c1ccccc1", "Potency": "inconclusive: 0.708 µM [activator, single point]"}
{"smiles": "CCOC(=O)C1=C(C)NC(=S)NC1c1ccc(-c2ccc(Cl)cc2)o1", "note": "(centres undefined)", "cytoprotection (ATP increase)": "inactive: 15.3% [at 10 µM]"}
{"smiles": "Cn1c2c(c(=O)n(C)c1=O)C(NS(=O)(=O)c1ccccc1)(C(F)(F)F)C(=O)N2", "note": "(centres undefined)", "Potency": "active: 3.55 µM"}
{"smiles": "CCCc1cc(=O)[nH]c(SCc2cc(Cl)ccc2OC(F)F)n1", "Potency": "inconclusive: 0.708 µM [activator, full curve, poor fit]"}
{"smiles": "Cc1noc(C)c1-c1cc(NCCN2CCOCC2)ncn1", "Potency": "inconclusive: 11.2 µM [activator, partial curve, poor fit]"}
{"smiles": "CC1=NN(/C(=N\\c2nnc(C)s2)Nc2ccccc2)[C@H](c2ccc(C)cc2)S1", "Potency": "inconclusive: 0.316 µM [activator, partial curve]"}
{"smiles": "CCOC(=O)C1=C(C)Nc2ncnn2C1c1cccnc1", "note": "(centres undefined)", "Potency": "inactive"}
{"smiles": "O=C(Nc1sc2c(c1C(=O)O)CCCCC2)c1ccccc1", "cytoprotection (ATP increase)": "inactive: -39.3% [at 10 µM]"}
{"smiles": "Cc1cc(O)c(/C=N/Nc2ccccc2)c(=O)o1", "cytoprotection (ATP increase)": "inactive: -9.21% [at 10 µM]"}
{"smiles": "CCN(CC)C(=O)CSc1nnc(CNc2ccc(F)cc2)n1-c1ccccc1", "Potency": "inconclusive: 3.16 µM [activator, partial curve]"}
{"smiles": "CCOC(=O)N1CCN(C(=O)CSc2nnc(CNC(=O)c3c(F)cccc3Cl)o2)CC1", "Potency": "inconclusive: 3.98 µM [activator, partial curve, poor fit]"}
{"smiles": "Cc1ccc(C)c(C(=O)COC(=O)c2cc(Cl)nc3ccccc23)c1", "Potency": "inconclusive: 1.26 µM [activator, single point]"}
{"smiles": "COc1cccc(Nc2ncc3nc(-c4cn(C)c5ccccc45)c(=O)n(C[C@H]4CCCO4)c3n2)c1", "Potency": "inconclusive: 0.316 µM [activator, full curve]"}
{"smiles": "COC(=O)NC(NC(=S)Nc1ccc([N+](=O)[O-])cc1)C(Cl)(Cl)Cl", "note": "(centres undefined)", "Potency": "inconclusive: 1 µM [activator, full curve, poor fit]"}
{"smiles": "O=C(Cc1cccs1)NNC(=O)c1ccc(F)cc1", "Potency": "inconclusive: 3.55 µM [activator, single point]"}
{"smiles": "C=CCSCC1Nc2cc(Cl)c(S(N)(=O)=O)cc2S(=O)(=O)N1", "note": "(centres undefined)", "Potency": "inconclusive: 1.41 µM [activator, full curve, poor fit]"}
{"smiles": "CCOC(=O)c1c(-c2ccccc2)oc2ccc(OC(C)C(=O)O)cc12", "note": "(centres undefined)", "Potency": "inconclusive: 0.1 µM [activator, full curve, poor fit]"}
{"smiles": "CCOC(=O)C1CCN(C(=O)c2c(-c3ccccc3)noc2C)CC1", "Potency": "inconclusive: 0.316 µM [activator, partial curve]"}
{"smiles": "O=C1NC(=Nc2ccc(Cl)cc2)SC1Cc1cccc(Cl)c1Cl", "note": "(centres undefined)", "Potency": "inconclusive: 5.62 µM [activator, single point]"}
{"smiles": "O=C(Nc1ccc(F)cc1F)c1cc2ncc(Br)cn2n1", "Potency": "inconclusive: 4.47 µM [activator, partial curve]"}
{"smiles": "CCOCCCNC(=O)COC(=O)/C=C/c1ccc(S(=O)(=O)N2CCc3ccccc32)cc1", "Potency": "inactive"}
{"smiles": "COC(=O)[C@H](C)NC(=O)C/C=C\\[C@@H](C)[C@@H](CO)OC", "Potency": "inconclusive: 0.316 µM [activator, partial curve]"}
{"smiles": "COC(=O)CC1=NN(c2ccccc2)C(=O)/C1=C\\c1ccc(OC)cc1", "cytoprotection (ATP increase)": "inactive: -24.2% [at 10 µM]"}
{"smiles": "COCCNc1cc(C)nc2cc(-c3ccc(C)cc3)nn12", "Potency": "inactive"}
{"smiles": "COc1cccc([C@H]2Oc3ccc(OC)cc3/C(=N\\OC[C@@H](O)[C@@H]3O[C@@H]4OC(C)(C)O[C@@H]4[C@H]3O)[C@@H]2O)c1", "cytoprotection (ATP increase)": "inactive: -10.8% [at 10 µM]"}
{"smiles": "CC(C)C[C@@H](CC(=O)N[C@@H](CCCN)CC(=O)N[C@@H]1CCCC[C@H]1C(=O)N[C@H](CC(=O)N[C@@H](CCC(=O)O)CC(=O)O)Cc1ccccc1)NC(=O)[C@@H]1CNCC[C@H]1N", "Potency": "inconclusive: 35.5 µM [activator, single point]"}
{"smiles": "CCOC(=O)Cc1csc(SCC(=O)Nc2cccc(Cl)c2)n1", "Potency": "inconclusive: 2.51 µM [activator, partial curve]"}
{"smiles": "COC(=O)/C=C/c1ccc(-n2cncn2)cc1", "Potency": "inactive"}
{"smiles": "O=C(O)C1=CCCN(CCON=C(c2ccccc2)c2ccccc2)C1", "Potency": "inconclusive: 0.004 µM [activator, full curve, poor fit]"}
{"smiles": "CCN1C(=O)C(CC(=O)Nc2ccc(OC)cc2)N(Cc2ccco2)C1=S", "note": "(centres undefined)", "Potency": "inconclusive: 0.708 µM [activator, single point]"}
{"smiles": "O=C(NCc1ccco1)c1ccc(N2CCCC2=O)cc1", "Potency": "inactive"}
{"smiles": "CCOC(=O)c1c(-c2ccc(C)cc2)csc1NC(=S)NC(=O)c1ccccc1", "cytoprotection (ATP increase)": "inactive: 13.1% [at 10 µM]"}
{"smiles": "COCCn1c(=O)c(-c2ccc(F)cc2)nc2cnc(N3CCOCC3)nc21", "Potency": "inconclusive: 31.6 µM [activator, single point]"}
{"smiles": "CC(=O)n1nc(-c2ccco2)nc1N", "Potency": "inconclusive: 3.55 µM [activator, single point]"}
{"smiles": "CCC(C(=O)NC(N)=O)c1ccccc1", "note": "(centres undefined)", "Potency": "inactive"}
{"smiles": "COC(=O)c1ccccc1NC(=O)CSc1nc(NC(=O)c2ccccc2)c2c(C)c(C)oc2n1", "Potency": "inconclusive: 1 µM [activator, single point]"}
{"smiles": "O=C1N/C(=N\\N=C\\c2cccs2)SC1Cc1ccc(Cl)cc1", "note": "(centres undefined)", "Potency": "inconclusive: 1.26 µM [activator, single point]"}
{"smiles": "c1ccc(CN(CC2=NCCN2)c2ccccc2)cc1", "Potency": "inconclusive: 0.0501 µM [activator, full curve, poor fit]"}
{"smiles": "CN(C)c1nc(Cl)nc(N(C#N)CCOc2ccccc2)n1", "Potency": "inconclusive: 6.31 µM [activator, single point]"}
{"smiles": "Clc1nc(CN2CCCCC2)nc2sc3c(c12)CCCC3", "Potency": "inconclusive: 35.5 µM [activator, single point]"}
{"smiles": "COC(=O)[C@@]1(Cc2ccccc2)[C@H]2c3cc(C(=O)N4CCCC4)n(Cc4ccc(OC)c(OC)c4)c3C[C@H]2CN1C(=O)c1ccccc1", "Potency": "inactive"}
{"smiles": "CCNc1ncc2nc(-c3cccs3)c(=O)n(CCc3ccccc3)c2n1", "Potency": "active: 1.41 µM"}
{"smiles": "CCCCC(=O)NNC(=S)NC(=O)CCC", "cytoprotection (ATP increase)": "inactive: 7.15% [at 1.9 µM]"}
{"smiles": "Cc1ccc(/C=c2\\sc3n(c2=O)CN(c2cccc(Br)c2)CN=3)o1", "Potency": "inactive"}
{"smiles": "O=C(COc1ccccc1Cl)Nc1ccc(C(=O)c2ccc(C(=O)O)cc2)cc1", "Potency": "inconclusive: 31.6 µM [activator, single point]"}
{"smiles": "COc1ccc(NCC(=O)N/N=C(\\C)c2cc3ccccc3o2)cc1", "Potency": "inactive"}
{"smiles": "COc1ccc(NS(=O)(=O)c2ccc3oc(SC4CCOC4=O)nc3c2)cc1", "note": "(centres undefined)", "Potency": "inactive"}
{"smiles": "O=C(O)CSc1nnc(-c2ccncc2)n1CCc1ccccc1", "Potency": "inconclusive: 3.55 µM [activator, single point]"}
{"smiles": "COc1ccc(CNC(=O)CN(Cc2ccc(Cl)cc2)S(=O)(=O)c2ccccc2)cc1", "Potency": "inactive"}
